For this test, the target named is T1, endogenous Munc13-4 (rat (endogenous in RBL-2H3)) (UniProt Q9R189).
T1 sequence: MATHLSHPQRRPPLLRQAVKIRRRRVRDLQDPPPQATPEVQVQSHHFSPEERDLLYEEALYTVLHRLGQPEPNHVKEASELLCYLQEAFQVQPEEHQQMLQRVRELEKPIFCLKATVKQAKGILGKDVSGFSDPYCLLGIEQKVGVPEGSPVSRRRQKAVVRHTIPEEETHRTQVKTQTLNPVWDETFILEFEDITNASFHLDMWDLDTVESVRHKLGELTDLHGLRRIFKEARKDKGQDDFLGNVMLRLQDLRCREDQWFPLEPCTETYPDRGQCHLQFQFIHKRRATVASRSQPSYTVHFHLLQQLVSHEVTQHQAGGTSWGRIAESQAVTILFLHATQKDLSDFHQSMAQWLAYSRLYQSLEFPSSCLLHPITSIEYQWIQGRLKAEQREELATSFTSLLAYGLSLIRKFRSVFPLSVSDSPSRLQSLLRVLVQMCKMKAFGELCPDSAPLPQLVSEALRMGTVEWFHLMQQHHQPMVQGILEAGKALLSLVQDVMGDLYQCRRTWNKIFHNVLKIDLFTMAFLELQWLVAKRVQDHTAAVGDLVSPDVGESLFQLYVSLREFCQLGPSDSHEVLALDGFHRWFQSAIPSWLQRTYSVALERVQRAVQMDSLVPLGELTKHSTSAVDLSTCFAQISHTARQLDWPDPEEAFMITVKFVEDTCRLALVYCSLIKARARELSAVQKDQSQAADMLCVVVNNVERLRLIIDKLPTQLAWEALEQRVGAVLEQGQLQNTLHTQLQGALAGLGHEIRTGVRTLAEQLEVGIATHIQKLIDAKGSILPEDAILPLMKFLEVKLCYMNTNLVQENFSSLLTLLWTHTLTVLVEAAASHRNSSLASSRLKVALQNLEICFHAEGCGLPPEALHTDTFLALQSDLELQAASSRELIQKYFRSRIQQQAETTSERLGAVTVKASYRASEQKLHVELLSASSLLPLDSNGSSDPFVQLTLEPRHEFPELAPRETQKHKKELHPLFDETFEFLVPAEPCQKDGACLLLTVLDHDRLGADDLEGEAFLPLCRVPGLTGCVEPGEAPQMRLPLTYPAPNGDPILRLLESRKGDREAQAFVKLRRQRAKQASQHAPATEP
Description: co-IP; RBL-2H3 cells transfected with HA-Rab37, G418-selected, treated with 1 mM DSP before lysis; immunoprecipitation with or without anti-Munc13-4 antibody; blot with anti-HA (3F10) or anti-Munc13-4.

No constants are given. Whether binding was seen depends on the method and setting. In cells and extracts the contact can be indirect. A result given as binding can be weak or reduced; the word gives no strength.

For HA-Rab37 (in RBL-2H3 cells) (rat), the binding entry is reported as “binds”.

The record behind these values is PMC4773767.
